Measurements reported in PubChem BioAssay AID686938 (Drosophila RNAi Screening Center, 2013).
Screen: 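Looking for CRAC channel components and the factors controlling them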 (primary screen). Cell system: Drosophila S2R+ cells. Reagent: long dsRNA against Drosophila genes, about 0.25 µg dsRNA per well, roughly 10,000 cells. Timing: 5 days of knock-down before the calcium assay. Challenge: thapsigargin (SERCA pump blocker) to empty calcium stores; entry signal taken 4 min after adding it. Measured: 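Per-well fluo-4 fluorescence in two replicates, unnormalised, measured in resting cells and 4 min after store depletion by the SERCA blocker thapsigargin; ratio of the two present in few wells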. Direction: calcium entry signal: higher = stronger calcium signal after store depletion; resting calcium signal: higher = higher resting calcium signal. Units: calcium entry signal in fluorescence units; resting calcium signal in fluorescence units. Hit rule: 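Called when the plate z-score of the entry-to-rest ratio, mean of duplicates, falls below −3; wells with low overall dye signal (Fmax z below −2) or more than five off-targets excluded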. Calls: active = strongly reduced calcium entry; inactive = no strong reduction.
In all, the deposit lists about 23,000 reagents; shown is a random part of those with a known target gene and a result. Over the whole deposit, 75 (0.33%) got an active call. 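Raw plate signals without normalisation; calls rest on plate z-scores that were not deposited; ratio present for only 364 wells.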 A number with no mark means an inactive call. The numbers tell different reagents against one gene apart. A plus sign joins genes that one reagent is predicted to hit. The record does not give: the dose of the treatment.

{"target gene": "CG10814", "reagent no.": 1, "calcium entry signal, replicate 1": 2.41e7, "calcium entry signal, replicate 2": 2.92e7, "resting calcium signal, replicate 1": 1.07e7, "resting calcium signal, replicate 2": 1.32e7}
{"target gene": "Amy-d + Amy-p", "reagent no.": 1, "calcium entry signal, replicate 1": 5.24e7, "calcium entry signal, replicate 2": 5.14e7, "resting calcium signal, replicate 1": 2.65e7, "resting calcium signal, replicate 2": 2.40e7}
{"target gene": "snama", "reagent no.": 1, "calcium entry signal, replicate 1": 3.65e7, "resting calcium signal, replicate 1": 1.75e7}
{"target gene": "sand", "reagent no.": 1, "calcium entry signal, replicate 1": 3.05e7, "calcium entry signal, replicate 2": 4.01e7, "resting calcium signal, replicate 1": 1.53e7, "resting calcium signal, replicate 2": 1.97e7}
{"target gene": "CG10405", "reagent no.": 1, "calcium entry signal, replicate 1": 2.92e7, "calcium entry signal, replicate 2": 6.51e7, "resting calcium signal, replicate 1": 1.63e7, "resting calcium signal, replicate 2": 6.16e7}
{"target gene": "Wdfy2", "reagent no.": 1, "calcium entry signal, replicate 1": 3.85e7, "resting calcium signal, replicate 1": 2.13e7}
{"target gene": "kl-3 (retired record)", "reagent no.": 1, "calcium entry signal, replicate 1": 3.47e7, "calcium entry signal, replicate 2": 3.90e7, "resting calcium signal, replicate 1": 1.65e7, "resting calcium signal, replicate 2": 1.68e7}
{"target gene": "kl-3 (retired record)", "reagent no.": 2, "calcium entry signal, replicate 1": 4.23e7, "calcium entry signal, replicate 2": 4.52e7, "resting calcium signal, replicate 1": 2.20e7, "resting calcium signal, replicate 2": 2.01e7}
{"target gene": "kl-3 (retired record)", "reagent no.": 3, "calcium entry signal, replicate 1": 4.15e7, "calcium entry signal, replicate 2": 3.79e7, "resting calcium signal, replicate 1": 1.75e7, "resting calcium signal, replicate 2": 1.59e7}
{"target gene": "CG33919", "reagent no.": 1, "calcium entry signal, replicate 1": 3.24e7, "calcium entry signal, replicate 2": 6.43e7, "resting calcium signal, replicate 1": 1.63e7, "resting calcium signal, replicate 2": 2.81e7}
{"target gene": "dachs", "reagent no.": 1, "calcium entry signal, replicate 1": 3.77e7, "calcium entry signal, replicate 2": 3.22e7, "resting calcium signal, replicate 1": 1.69e7, "resting calcium signal, replicate 2": 1.64e7}
{"target gene": "dachs", "reagent no.": 2, "calcium entry signal, replicate 1": 4.65e7, "resting calcium signal, replicate 1": 2.31e7}
{"target gene": "dachs", "reagent no.": 3, "calcium entry signal, replicate 1": 4.39e7, "calcium entry signal, replicate 2": 6.89e7, "resting calcium signal, replicate 1": 2.04e7, "resting calcium signal, replicate 2": 2.77e7}
{"target gene": "CG6654", "reagent no.": 1, "calcium entry signal, replicate 1": 3.57e7, "calcium entry signal, replicate 2": 4.38e7, "resting calcium signal, replicate 1": 1.58e7, "resting calcium signal, replicate 2": 1.82e7}
{"target gene": "CG5339", "reagent no.": 1, "calcium entry signal, replicate 1": 3.18e7, "resting calcium signal, replicate 1": 1.59e7}
{"target gene": "Taf1", "reagent no.": 1, "calcium entry signal, replicate 1": 2.85e7, "calcium entry signal, replicate 2": 1.93e7, "resting calcium signal, replicate 1": 1.59e7, "resting calcium signal, replicate 2": 1.11e7}
{"target gene": "CG16749", "reagent no.": 1, "calcium entry signal, replicate 1": 2.14e7, "calcium entry signal, replicate 2": 2.20e7, "resting calcium signal, replicate 1": 1.09e7, "resting calcium signal, replicate 2": 1.14e7}
{"target gene": "Pax", "reagent no.": 1, "calcium entry signal, replicate 1": 2.84e7, "calcium entry signal, replicate 2": 4.52e7, "resting calcium signal, replicate 1": 1.63e7, "resting calcium signal, replicate 2": 2.22e7}
{"target gene": "Pax", "reagent no.": 2, "calcium entry signal, replicate 1": 4.43e7, "resting calcium signal, replicate 1": 2.06e7}
{"target gene": "Pax", "reagent no.": 3, "calcium entry signal, replicate 1": 5.33e7, "calcium entry signal, replicate 2": 5.29e7, "resting calcium signal, replicate 1": 2.57e7, "resting calcium signal, replicate 2": 2.24e7}
{"target gene": "CG31663", "reagent no.": 1, "calcium entry signal, replicate 1": 3.71e7, "calcium entry signal, replicate 2": 3.96e7, "resting calcium signal, replicate 1": 1.99e7, "resting calcium signal, replicate 2": 1.91e7}
{"target gene": "CG31663", "reagent no.": 2, "calcium entry signal, replicate 1": 5.09e7, "resting calcium signal, replicate 1": 2.63e7}
{"target gene": "CG31663", "reagent no.": 3, "calcium entry signal, replicate 1": 3.84e7, "calcium entry signal, replicate 2": 2.66e7, "resting calcium signal, replicate 1": 1.61e7, "resting calcium signal, replicate 2": 1.40e7}
{"target gene": "CG31663", "reagent no.": 4, "calcium entry signal, replicate 1": 3.62e7, "calcium entry signal, replicate 2": 3.49e7, "resting calcium signal, replicate 1": 1.74e7, "resting calcium signal, replicate 2": 1.55e7}

Single entries from the entries so far.
Entry for CG10405 in “calcium entry signal, replicate 1”: 2.92e7
Under “resting calcium signal, replicate 1”, CG5339 reads 1.59e7
